Experimental data published in the supplement of paper PMC10849652.
This is one part of the list.

Sequences of proteins named here, by UniProt entry; tags and fusion partners are left off. A change or cut given only in a name is not applied to a line headed by its entry.
UniProt Q9BXL5: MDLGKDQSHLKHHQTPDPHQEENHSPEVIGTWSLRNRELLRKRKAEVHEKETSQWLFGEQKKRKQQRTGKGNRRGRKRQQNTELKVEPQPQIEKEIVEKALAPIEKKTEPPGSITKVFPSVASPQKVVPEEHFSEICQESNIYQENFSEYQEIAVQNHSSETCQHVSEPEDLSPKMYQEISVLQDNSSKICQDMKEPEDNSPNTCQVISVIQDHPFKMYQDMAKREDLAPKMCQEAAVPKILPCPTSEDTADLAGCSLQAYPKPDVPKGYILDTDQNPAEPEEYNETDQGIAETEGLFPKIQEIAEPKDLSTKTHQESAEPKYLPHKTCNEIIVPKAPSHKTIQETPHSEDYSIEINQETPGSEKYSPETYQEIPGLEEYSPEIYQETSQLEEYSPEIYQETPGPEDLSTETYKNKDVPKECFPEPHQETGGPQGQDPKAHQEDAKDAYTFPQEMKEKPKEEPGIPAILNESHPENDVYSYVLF
UniProt Q99714: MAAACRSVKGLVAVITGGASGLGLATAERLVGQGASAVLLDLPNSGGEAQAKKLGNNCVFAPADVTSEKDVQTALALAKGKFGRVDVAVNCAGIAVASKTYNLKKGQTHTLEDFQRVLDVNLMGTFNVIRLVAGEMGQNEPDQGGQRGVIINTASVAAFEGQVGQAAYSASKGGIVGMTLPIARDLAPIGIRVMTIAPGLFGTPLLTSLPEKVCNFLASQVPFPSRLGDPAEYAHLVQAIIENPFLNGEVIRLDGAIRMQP
UniProt P22626: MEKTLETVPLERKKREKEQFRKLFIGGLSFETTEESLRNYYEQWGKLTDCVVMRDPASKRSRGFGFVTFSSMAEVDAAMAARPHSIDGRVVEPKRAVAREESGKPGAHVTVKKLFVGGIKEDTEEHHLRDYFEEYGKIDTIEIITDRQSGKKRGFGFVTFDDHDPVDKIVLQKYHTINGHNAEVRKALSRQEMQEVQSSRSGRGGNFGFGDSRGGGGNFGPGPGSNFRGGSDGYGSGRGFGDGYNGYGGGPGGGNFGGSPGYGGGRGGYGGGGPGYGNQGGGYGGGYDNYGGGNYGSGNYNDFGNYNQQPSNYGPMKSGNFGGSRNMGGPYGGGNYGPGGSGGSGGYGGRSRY
UniProt P55795: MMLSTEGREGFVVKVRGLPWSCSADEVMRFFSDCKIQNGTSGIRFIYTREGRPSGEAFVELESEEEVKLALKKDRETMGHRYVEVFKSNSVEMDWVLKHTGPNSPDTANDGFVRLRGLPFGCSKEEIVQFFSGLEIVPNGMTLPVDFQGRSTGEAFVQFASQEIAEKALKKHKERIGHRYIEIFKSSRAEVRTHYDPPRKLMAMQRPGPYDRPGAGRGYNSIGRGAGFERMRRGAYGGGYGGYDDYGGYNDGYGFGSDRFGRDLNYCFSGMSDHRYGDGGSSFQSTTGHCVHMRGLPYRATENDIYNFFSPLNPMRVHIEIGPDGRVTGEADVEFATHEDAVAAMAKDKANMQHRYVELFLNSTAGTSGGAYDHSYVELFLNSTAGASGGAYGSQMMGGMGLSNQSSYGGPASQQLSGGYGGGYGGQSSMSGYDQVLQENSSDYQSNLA
UniProt O75330: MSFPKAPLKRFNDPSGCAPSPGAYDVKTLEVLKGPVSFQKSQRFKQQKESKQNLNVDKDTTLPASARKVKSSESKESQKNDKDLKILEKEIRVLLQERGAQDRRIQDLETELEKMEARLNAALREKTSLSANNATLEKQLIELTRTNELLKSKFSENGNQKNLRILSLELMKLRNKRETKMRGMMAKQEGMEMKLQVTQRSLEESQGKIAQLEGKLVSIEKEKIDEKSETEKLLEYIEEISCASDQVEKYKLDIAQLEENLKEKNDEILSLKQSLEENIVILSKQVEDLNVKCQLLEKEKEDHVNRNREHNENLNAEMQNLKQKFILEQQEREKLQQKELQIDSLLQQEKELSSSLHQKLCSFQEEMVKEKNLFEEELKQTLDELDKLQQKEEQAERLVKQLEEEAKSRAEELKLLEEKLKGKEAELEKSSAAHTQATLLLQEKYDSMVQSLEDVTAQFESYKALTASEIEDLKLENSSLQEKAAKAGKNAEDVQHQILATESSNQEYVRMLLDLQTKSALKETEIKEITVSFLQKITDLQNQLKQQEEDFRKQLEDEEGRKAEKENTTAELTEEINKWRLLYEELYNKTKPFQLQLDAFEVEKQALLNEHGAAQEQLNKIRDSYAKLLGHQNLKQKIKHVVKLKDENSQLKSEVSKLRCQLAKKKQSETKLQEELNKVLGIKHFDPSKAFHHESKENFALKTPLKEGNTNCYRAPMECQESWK
UniProt O15347: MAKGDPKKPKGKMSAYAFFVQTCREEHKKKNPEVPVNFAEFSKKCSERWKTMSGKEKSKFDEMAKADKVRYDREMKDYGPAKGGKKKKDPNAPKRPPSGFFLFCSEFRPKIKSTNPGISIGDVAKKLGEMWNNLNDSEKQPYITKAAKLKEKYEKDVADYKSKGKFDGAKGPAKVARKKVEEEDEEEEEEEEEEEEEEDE
UniProt Q03014: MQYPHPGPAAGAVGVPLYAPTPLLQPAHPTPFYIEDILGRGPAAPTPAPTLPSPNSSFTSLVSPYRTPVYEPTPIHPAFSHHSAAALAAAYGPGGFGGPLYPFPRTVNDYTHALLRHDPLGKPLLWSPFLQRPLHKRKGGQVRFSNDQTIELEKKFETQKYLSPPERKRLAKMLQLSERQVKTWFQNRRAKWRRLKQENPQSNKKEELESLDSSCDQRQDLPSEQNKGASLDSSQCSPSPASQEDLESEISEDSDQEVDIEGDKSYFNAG
UniProt Q9BTY7: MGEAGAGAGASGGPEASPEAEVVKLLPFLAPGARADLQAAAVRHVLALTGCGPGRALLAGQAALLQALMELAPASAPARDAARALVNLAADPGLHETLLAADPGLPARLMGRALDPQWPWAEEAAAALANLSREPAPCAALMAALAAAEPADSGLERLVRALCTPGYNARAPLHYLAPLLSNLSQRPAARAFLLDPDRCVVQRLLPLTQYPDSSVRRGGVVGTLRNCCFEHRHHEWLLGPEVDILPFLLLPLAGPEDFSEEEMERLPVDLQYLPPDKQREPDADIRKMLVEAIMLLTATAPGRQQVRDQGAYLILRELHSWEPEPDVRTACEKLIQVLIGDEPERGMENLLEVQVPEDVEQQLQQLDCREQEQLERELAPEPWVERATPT
UniProt O14979: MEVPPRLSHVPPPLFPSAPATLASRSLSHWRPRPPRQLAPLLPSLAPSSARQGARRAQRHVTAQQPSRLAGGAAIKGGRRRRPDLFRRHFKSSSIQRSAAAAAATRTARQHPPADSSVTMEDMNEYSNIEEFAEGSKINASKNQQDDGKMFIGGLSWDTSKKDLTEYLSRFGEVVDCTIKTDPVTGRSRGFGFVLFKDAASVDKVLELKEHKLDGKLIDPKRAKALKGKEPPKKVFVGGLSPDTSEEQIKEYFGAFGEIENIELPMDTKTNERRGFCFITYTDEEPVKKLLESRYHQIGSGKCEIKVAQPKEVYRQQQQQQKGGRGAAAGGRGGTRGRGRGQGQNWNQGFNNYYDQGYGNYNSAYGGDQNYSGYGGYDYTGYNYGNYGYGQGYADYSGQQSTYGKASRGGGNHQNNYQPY
UniProt Q86VS8: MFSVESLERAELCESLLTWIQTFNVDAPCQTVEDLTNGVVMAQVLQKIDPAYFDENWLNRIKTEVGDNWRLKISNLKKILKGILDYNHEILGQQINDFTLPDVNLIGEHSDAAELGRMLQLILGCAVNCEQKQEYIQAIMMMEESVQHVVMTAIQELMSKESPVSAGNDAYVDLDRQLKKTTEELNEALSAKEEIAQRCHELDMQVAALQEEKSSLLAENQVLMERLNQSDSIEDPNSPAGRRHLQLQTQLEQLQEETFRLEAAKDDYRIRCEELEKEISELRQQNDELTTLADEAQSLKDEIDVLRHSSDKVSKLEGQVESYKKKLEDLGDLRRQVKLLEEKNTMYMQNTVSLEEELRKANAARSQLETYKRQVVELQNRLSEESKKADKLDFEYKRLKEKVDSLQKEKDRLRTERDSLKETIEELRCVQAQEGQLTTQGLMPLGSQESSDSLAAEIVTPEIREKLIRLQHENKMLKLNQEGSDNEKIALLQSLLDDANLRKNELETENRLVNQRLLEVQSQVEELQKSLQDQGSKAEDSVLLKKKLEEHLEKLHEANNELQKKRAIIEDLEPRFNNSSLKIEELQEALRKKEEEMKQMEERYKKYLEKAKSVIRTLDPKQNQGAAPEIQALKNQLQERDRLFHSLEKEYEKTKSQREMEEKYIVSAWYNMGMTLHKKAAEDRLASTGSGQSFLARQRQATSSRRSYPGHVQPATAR
UniProt P17096: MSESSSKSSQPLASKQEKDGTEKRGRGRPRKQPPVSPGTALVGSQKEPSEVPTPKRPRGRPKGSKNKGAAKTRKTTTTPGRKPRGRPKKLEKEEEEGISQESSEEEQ
UniProt P49773: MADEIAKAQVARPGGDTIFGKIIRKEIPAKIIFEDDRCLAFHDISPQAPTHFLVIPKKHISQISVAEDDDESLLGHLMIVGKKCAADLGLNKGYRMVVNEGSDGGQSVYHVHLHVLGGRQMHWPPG
UniProt Q00839, whole entry, looked up: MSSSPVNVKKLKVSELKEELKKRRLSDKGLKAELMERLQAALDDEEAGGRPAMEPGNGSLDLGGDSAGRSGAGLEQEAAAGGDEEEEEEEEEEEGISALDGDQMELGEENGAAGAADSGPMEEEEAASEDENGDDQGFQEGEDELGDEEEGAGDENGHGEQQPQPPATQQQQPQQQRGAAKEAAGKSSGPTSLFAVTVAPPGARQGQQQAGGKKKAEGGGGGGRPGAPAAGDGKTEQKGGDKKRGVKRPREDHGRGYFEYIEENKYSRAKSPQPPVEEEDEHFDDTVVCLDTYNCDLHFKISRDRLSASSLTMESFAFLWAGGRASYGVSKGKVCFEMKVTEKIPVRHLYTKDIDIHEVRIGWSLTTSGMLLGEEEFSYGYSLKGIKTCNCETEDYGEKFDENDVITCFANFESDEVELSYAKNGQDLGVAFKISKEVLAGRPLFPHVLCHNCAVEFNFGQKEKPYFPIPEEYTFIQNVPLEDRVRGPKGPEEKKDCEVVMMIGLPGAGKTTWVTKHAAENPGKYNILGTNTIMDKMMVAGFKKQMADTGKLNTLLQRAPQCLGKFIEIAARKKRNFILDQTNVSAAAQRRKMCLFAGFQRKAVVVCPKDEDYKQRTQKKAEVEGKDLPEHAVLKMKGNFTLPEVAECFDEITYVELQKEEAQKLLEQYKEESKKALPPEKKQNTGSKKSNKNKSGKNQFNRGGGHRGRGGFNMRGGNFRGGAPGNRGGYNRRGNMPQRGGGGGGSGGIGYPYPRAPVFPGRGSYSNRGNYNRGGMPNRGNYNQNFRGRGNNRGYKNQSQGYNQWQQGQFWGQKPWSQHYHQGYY
UniProt O94992, whole entry, looked up: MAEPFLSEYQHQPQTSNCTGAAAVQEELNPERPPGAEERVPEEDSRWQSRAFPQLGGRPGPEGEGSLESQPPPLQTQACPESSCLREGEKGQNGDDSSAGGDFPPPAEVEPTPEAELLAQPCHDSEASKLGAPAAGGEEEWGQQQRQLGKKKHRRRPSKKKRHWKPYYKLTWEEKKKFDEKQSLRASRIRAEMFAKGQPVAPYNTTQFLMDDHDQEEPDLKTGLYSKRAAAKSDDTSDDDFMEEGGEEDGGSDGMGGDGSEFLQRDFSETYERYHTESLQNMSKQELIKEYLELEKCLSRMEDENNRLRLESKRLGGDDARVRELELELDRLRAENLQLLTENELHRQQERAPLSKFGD

Experiments:
Assay in all cases: log2 fold change, soluble protein after heating vs DMSO (PISA); higher = thermal stabilisation; K562 lysate, 10 uM; active = over 0.2 and 3.5 SD of the protein, either way, in both replicates (recomputed)
[1] = compound: C#Cc1cccc(Nc2ncnc3cc(OCCOC)c(OCCOC)cc23)c1 [erlotinib]
Summary of the method: (§1)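 Log-two fold change in thermal stability relative to solvent controls is reported from duplicates. For each sample, crude K562 extract from dounce-homogenised pellets in PBS pH 7.4 with 1 mM MgCl2, at 1 mg/mL protein, was treated with 10 μM compound for 30 min. Aliquots heated for 3 min across 48°C-58°C were pooled, brought to 0.5% NP-40 at 4°C and cleared at 21,000xg for 90 min. The supernatant was quantified by TMTpro 16plex LC-MS/MS with channel sums equalised.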

[2] = compound: C/C(=N\NC(=O)C1=CC(=CC=C1)S(=O)(=O)N2CCOCC2)/C3=C(C=CC(=C3)Cl)O
Summary of the method: as §1

[3] = compound: C1=CC(=CC=C1C2=NC3=C(N2)C=C(C=C3)C(=O)N)OC4=CC=C(C=C4)Cl
Summary of the method: as §1

[4] = compound: C1=CC2=C(C=CC(=C2)/C=C\3/C(=O)NC(=NCC4=CC=CS4)S3)N=C1
Summary of the method: as §1

[5] = compound: C1=CC2=NC=CN=C2C=C1/C=C/3\C(=O)NC(=O)S3
Summary of the method: as §1

[6] = compound: C1=CC=C(C=C1)C2=NC(=C(N2)C3=CC=NC=C3)C4=CC(=C(C=C4)Cl)O
Summary of the method: as §1

[7] = compound: C1=CC=C2C(=C1)C3=NNC4=CC=CC(=C43)C2=O
Summary of the method: as §1

[8] = compound: C1CCN(C1)C(=O)NC2=CC=CC(=C2)NC3=NC=C(C(=N3)NCCC4=CN=CN4)Br
Summary of the method: as §1

[9] = compound: C1CN(CCC1(CC2=CC=C(C=C2)Cl)N)C3=NC=NC4=C3C=CN4
Summary of the method: as §1

[10] = compound: C1COCCN1CCN2C3=CC=CC=C3N=C2NC(=O)C4=CC(=CC=C4)[N+](=O)[O-] [IRAK-1-4 Inhibitor I]
Summary of the method: as §1

[11] = compound: C=CC(=O)N1CCC[C@@H](n2nc(-c3ccc(Oc4ccccc4)cc3)c3c(N)ncnc32)C1 [ibrutinib]
Summary of the method: as §1

[12] = compound: CC(=O)c1cnc2ccc(-c3cc(Cl)c(O)c(Cl)c3)nc2c1N[C@H]1CC[C@H](CN(C)C)CC1
Summary of the method: as §1

[13] = compound: CC(C)(C)Cn1c(N)nc2ccc(-c3[nH]c(C(C)(C)C)nc3-c3ccc(F)cc3)nc21 [ralimetinib]
Summary of the method: as §1

[14] = compound: CC(C)(O)CC(=O)NCCn1ccc2ncnc(Nc3ccc(Oc4cccc(C(F)(F)F)c4)c(Cl)c3)c21
Summary of the method: as §1

[15] = compound: CC(C)C1=C2N=C(C=C(N2N=C1)NCC3=CC=CC=C3)NCCCCCCN
Summary of the method: as §1

[16] = compound: CC1=C(C(CC(=O)N1)C2=CC=C(C=C2)C(F)(F)F)C(=O)NC3=C(C=C4C(=C3)C=NN4)F
Summary of the method: as §1

[17] = compound: CC1=C(C2=C(C=C1)C(=O)C3=CC=CC=C3N2CCCN)C
Summary of the method: as §1

[18] = compound: CC1=C(C=C(C=C1)NC(=O)C2=CC(=CC=C2)C(C)(C)C#N)NC3=CC4=C(C=C3)N=CN(C4=O)C
Summary of the method: as §1

[19] = compound: CC1=C(C=C(C=C1)NC(=O)C2=CC(=CC=C2)N(C)C)NC(=O)C3=CC=C(C=C3)O
Summary of the method: as §1

[20] = compound: CC1=CC=C(C=C1)SC2=C3C=C(SC3=CN=C2)C(=O)N
Summary of the method: as §1

Measured: log2 fold change

HEMGN (UniProt Q9BXL5)
inactive: [1] -0.008 | [2] 0.025 | [3] 0.01 | [4] 0.001 | [5] -0.023 | [6] 0.01 | [7] 0.056 | [8] 0.01 | [9] -0.002 | [10] -0.008 | [11] 0.005 | [12] -0.002 | [13] -0.031 | [14] 0.033 | [15] 0.01 | [16] 0.007 | [17] -0.014 | [18] -0.005 | [19] -0.044 | [20] 0.018

HPCAL1 (UniProt P37235)
inactive: [1] -0.037 | [2] -0.001 | [3] -0.012 | [4] -0.029 | [5] 0.004 | [6] -0.018 | [7] 0.003 | [8] 0.03 | [9] -0.023 | [10] 0 | [11] 0.049 | [12] 0.002 | [13] 0.032 | [14] -0.016 | [15] -0.046 | [16] 0.006 | [17] 0.033 | [18] 0.009 | [19] -0.037 | [20] -0.014

HSD17B10 (UniProt Q99714)
inactive: [1] 0.018 | [2] -0.044 | [3] 0.035 | [4] -0.023 | [5] 0.01 | [6] 0.016 | [7] -0.054 | [8] -0.03 | [9] 0.054 | [10] 0.012 | [11] -0.012 | [12] -0.018 | [13] 0.004 | [14] -0.003 | [15] 0 | [16] -0.026 | [17] -0.031 | [18] -0.018 | [19] -0.007 | [20] -0.025

HNRNPA2B1 (UniProt P22626)
inactive: [1] 0.002 | [2] 0.035 | [3] 0.017 | [4] 0.001 | [5] -0.022 | [6] -0.011 | [7] -0.015 | [8] -0.011 | [9] 0.003 | [10] 0.005 | [11] 0.012 | [12] -0.123 | [13] -0.011 | [14] -0.013 | [15] -0.003 | [16] -0.01 | [17] 0.002 | [18] -0.014 | [19] -0.013 | [20] -0.008

HNRNPH2 (UniProt P55795)
inactive: [1] -0.035 | [2] 0.112 | [3] 0.028 | [4] -0.047 | [5] 0.02 | [6] 0.038 | [7] -0.015 | [8] 0.01 | [9] -0.013 | [10] 0 | [11] 0.017 | [12] 0 | [13] -0.03 | [14] -0.023 | [15] -0.01 | [16] 0.056 | [17] 0.024 | [18] 0.081 | [19] 0.053 | [20] 0.029

HMMR isoform 3 (UniProt O75330)
inactive: [1] -0.034 | [2] 0.007 | [3] -0.01 | [4] 0.009 | [5] -0.016 | [6] 0.006 | [7] 0.021 | [8] -0.015 | [9] -0.017 | [10] -0.01 | [11] -0.004 | [12] -0.003 | [13] -0.021 | [14] 0.002 | [15] 0 | [16] 0.03 | [17] 0.005 | [18] 0.004 | [19] 0.012 | [20] -0.006

HMGB3 (UniProt O15347)
inactive: [1] -0.012 | [2] -0.057 | [3] 0.035 | [4] -0.016 | [5] -0.028 | [6] 0.006 | [7] 0.002 | [8] 0.024 | [9] -0.022 | [10] 0.005 | [11] -0.01 | [12] 0.032 | [13] 0 | [14] 0.002 | [15] 0.037 | [16] -0.025 | [17] -0.009 | [18] 0.046 | [19] 0.016 | [20] 0.003

HHEX (UniProt Q03014)
inactive: [1] -0.04 | [2] 0.081 | [3] 0.036 | [4] -0.131 | [5] -0.045 | [6] -0.1 | [7] 0.142 | [8] -0.024 | [9] -0.074 | [10] 0.092 | [11] -0.079 | [12] 0.016 | [13] -0.076 | [14] -0.042 | [15] -0.068 | [16] 0.058 | [17] 0.016 | [18] -0.204 | [19] 0.027 | [20] 0.142

HGH1 (UniProt Q9BTY7)
inactive: [1] 0.031 | [2] 0.051 | [3] -0.095 | [4] -0.002 | [5] 0.006 | [6] 0.017 | [7] -0.064 | [8] -0.047 | [9] 0.028 | [10] -0.021 | [11] 0.052 | [12] -0.014 | [13] 0.011 | [14] 0.017 | [15] -0.007 | [16] -0.024 | [17] -0.025 | [18] -0.007 | [19] 0.016 | [20] 0.062

HNRNPDL (UniProt O14979)
inactive: [1] -0.013 | [2] 0.026 | [3] 0.009 | [4] -0.008 | [5] 0.024 | [6] 0.038 | [7] 0.008 | [8] 0.006 | [9] 0.014 | [10] -0.008 | [11] 0 | [13] -0.027 | [14] 0.014 | [15] -0.011 | [16] 0.013 | [17] -0.016 | [18] 0.111 | [19] -0.011 | [20] 0
active: [12] -0.692

HIST2H2BF isoform 2 (UniProt Q5QNW6)
inactive: [1] -0.015 | [2] 0.07 | [3] -0.005 | [4] -0.057 | [5] -0.001 | [6] 0.022 | [7] 0.02 | [8] 0.069 | [9] -0.012 | [10] -0.048 | [11] 0.007 | [12] -0.012 | [13] -0.011 | [14] -0.006 | [15] -0.024 | [16] -0.033 | [17] 0.056 | [18] -0.024 | [19] -0.015 | [20] 0.005

HOOK3 (UniProt Q86VS8)
inactive: [1] -0.013 | [2] 0.03 | [3] 0.008 | [4] -0.026 | [5] -0.022 | [6] -0.022 | [7] -0.009 | [8] -0.016 | [9] -0.02 | [10] 0 | [11] 0.024 | [12] -0.008 | [13] 0.029 | [14] 0.014 | [15] -0.008 | [16] -0.001 | [17] 0.005 | [18] -0.011 | [19] 0.009 | [20] -0.035

HMGA1 (UniProt P17096)
inactive: [1] -0.037 | [2] -0.053 | [3] -0.001 | [4] -0.026 | [5] -0.053 | [6] -0.007 | [7] 0.026 | [8] 0.036 | [9] 0.013 | [10] -0.022 | [11] 0.004 | [12] -0.022 | [13] -0.024 | [14] -0.043 | [15] 0.002 | [16] -0.03 | [17] 0.075 | [18] -0.008 | [19] -0.023 | [20] -0.017

HINT1 (UniProt P49773)
inactive: [1] -0.05 | [2] 0.043 | [3] -0.046 | [4] 0.03 | [5] -0.006 | [6] -0.016 | [7] -0.078 | [8] -0.045 | [9] 0.021 | [10] -0.045 | [11] 0.049 | [12] 0.005 | [13] 0.016 | [14] 0.028 | [15] -0.005 | [16] -0.043 | [17] 0.071 | [18] -0.04 | [19] 0.005 | [20] 0.026

HNRNPU (UniProt Q00839)
inactive: [1] -0.007 | [2] 0.013 | [3] -0.036 | [4] -0.001 | [5] -0.021 | [6] 0.018 | [7] 0.043 | [8] 0.02 | [9] 0 | [10] -0.037 | [11] 0 | [12] -0.005 | [13] 0.005 | [14] 0.027 | [15] 0.017 | [16] -0.022 | [17] 0.022 | [18] -0.058 | [19] 0.018 | [20] 0.044

HEXIM1 (UniProt O94992)
inactive: [1] -0.042 | [2] -0.049 | [3] 0.03 | [4] -0.019 | [5] -0.036 | [6] -0.015 | [7] -0.016 | [8] -0.021 | [9] -0.008 | [10] 0.034 | [11] -0.009 | [12] 0.026 | [13] 0.004 | [14] -0.047 | [15] -0.077 | [16] 0.035 | [17] -0.064 | [18] -0.012 | [19] -0.019 | [20] -0.018

Two successive entries from above, quoted:
HMGA1 (UniProt P17096)
inactive: [1] -0.037 | [2] -0.053 | [3] -0.001 | [4] -0.026 | [5] -0.053 | [6] -0.007 | [7] 0.026 | [8] 0.036 | [9] 0.013 | [10] -0.022 | [11] 0.004 | [12] -0.022 | [13] -0.024 | [14] -0.043 | [15] 0.002 | [16] -0.03 | [17] 0.075 | [18] -0.008 | [19] -0.023 | [20] -0.017

HINT1 (UniProt P49773)
inactive: [1] -0.05 | [2] 0.043 | [3] -0.046 | [4] 0.03 | [5] -0.006 | [6] -0.016 | [7] -0.078 | [8] -0.045 | [9] 0.021 | [10] -0.045 | [11] 0.049 | [12] 0.005 | [13] 0.016 | [14] 0.028 | [15] -0.005 | [16] -0.043 | [17] 0.071 | [18] -0.04 | [19] 0.005 | [20] 0.026
